Test results taken from PubChem BioAssay AID1487 (National Center for Advancing Translational Sciences (NCATS), 2009).
This is one part of the list. These are further read-outs of the screen, such as a control signal, another cell line or another target. No call is given for them. Compounds called inactive in the main read-out are mostly missing here. Potencies come from curve fits of mixed quality, noted in brackets.

Assay: qHTS Assay for Modulators of Lamin A Splicing
Settings: HeLa LMNA splicing GFP/RFP minigene ratio, 48 h
Summary of the method: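 S3 HeLa stable clones carrying a lamin A-EGFP splicing minigene plus DsRed2 were seeded at 600 cells/well in Opti-MEM with 2% FBS, pin-dosed and incubated 48 h at 37°C. Acumen cytometry (488 nm) gave the GFP/RFP total-intensity ratio.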

[1] = measured here: GFP splicing reporter channel
[2] = measured here: RFP viability control channel

With `O=Nc1c(-c2c(O)[nH]c3ccccc23)[nH]c2ccccc12` the AC50 [1] was 10 µM [falling, partial curve, poor fit] and the AC50 [2] was 7.94 µM [falling, partial curve, poor fit].

With `COc1ccc(C(=O)CSC2=C(C#N)C3(CCCCC3)C(C#N)=C(N)N2)cc1` the AC50 [2] was 14.1 µM [rising, partial curve].

For `O=C(NCc1cccc(CNC(=O)C(=O)NCC2CCCO2)c1)C(=O)NCC1CCCO1` (stereo not given), the AC50 [2] was 5.62 µM [falling, single point].

With `CCCn1c(SCC(=O)Nc2ccc3c(c2)CCC3)n[nH]c1=O` the AC50 [2] was 22.4 µM [rising, single point].

In the case of `O=C(Nc1cccc(Cl)c1)C1C2CCC3C(CCC21)C3(Cl)Cl` (stereo not given), the AC50 [2] is reported as 14.1 µM [rising, partial curve].

For `Cc1[nH]c2ccccc2c1C(=O)/C=C\c1ccccc1Cl`, the AC50 [2] was 8.91 µM [rising, partial curve].

With `COc1cccc(-c2nc(CCl)cs2)c1` the AC50 [2] was 0.562 µM [falling, full curve, poor fit].

For `O=C(NC1CC(=O)N(c2cccc(F)c2)C1)c1cccs1` (stereo not given), the AC50 [1] was 5.01 µM [rising, partial curve] and the AC50 [2] was 5.62 µM [rising, single point].

With `Cc1ccc2nc(-c3ccc(NC(=O)CSc4nccc(=O)[nH]4)cc3)sc2c1` the AC50 [1] was 3.98 µM [falling, full curve, poor fit] and the AC50 [2] was 5.01 µM [falling, single point].

With `Cc1c(CN2CCCC(C(=O)c3cccc(OC(C)C)c3)C2)c(=O)n(-c2ccccc2)n1C` (stereo not given) the AC50 [2] was 0.0282 µM [falling, full curve, poor fit].

In the case of `O=C(COC(=O)/C(=C/c1cccs1)c1cccs1)NC(c1ccccc1)c1ccccc1`, the AC50 [1] is reported as 7.08 µM [rising, partial curve] and the AC50 [2] is reported as 12.6 µM [rising, partial curve, poor fit].

For `Cc1ccccc1Nc1cc(C(=O)NCCCN2CCN(c3cccc(Cl)c3)CC2)c2ccccc2n1`, the AC50 [2] was 14.1 µM [rising, single point].

For `Cc1ccc(N2C(=O)N(CC(=O)Nc3ccc(C)c(C)c3[N+](=O)[O-])C(=O)C2C)cc1` (stereo not given), the AC50 [2] was 1.26 µM [rising, partial curve].

For `CC(C)C(=O)Nc1ccc2nc(SCC(=O)N3CCCC3)sc2c1`, the AC50 [2] was 6.31 µM [falling, partial curve, poor fit].

With `CC1CCC(NC(=O)c2ccc3nc[nH]c3c2)CC1` (stereo not given) the AC50 [1] was 2.82 µM [falling, full curve, poor fit] and the AC50 [2] was 2.51 µM [falling, full curve].
